In PMC9166893:
These are yes or no findings as the source states them, for the method shown. Binding seen in cells or lysates may run through a third protein. Some binding calls cover weakened binding; strength is not graded here. For part of these data: Tags and fused reporters may be left off the sequences shown.

The chains behind the UniProt entries cited, without tags or fusion partners.
UniProt P68400: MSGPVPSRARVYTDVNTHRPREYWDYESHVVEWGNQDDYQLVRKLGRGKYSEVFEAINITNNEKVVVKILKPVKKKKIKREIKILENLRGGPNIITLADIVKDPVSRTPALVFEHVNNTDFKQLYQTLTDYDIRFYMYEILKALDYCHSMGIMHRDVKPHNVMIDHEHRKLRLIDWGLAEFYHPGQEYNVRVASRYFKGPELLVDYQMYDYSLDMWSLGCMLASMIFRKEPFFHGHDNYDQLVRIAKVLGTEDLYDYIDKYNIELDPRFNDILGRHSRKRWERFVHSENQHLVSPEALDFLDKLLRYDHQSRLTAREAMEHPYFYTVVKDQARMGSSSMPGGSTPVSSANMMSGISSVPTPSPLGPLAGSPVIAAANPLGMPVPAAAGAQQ
UniProt P19139: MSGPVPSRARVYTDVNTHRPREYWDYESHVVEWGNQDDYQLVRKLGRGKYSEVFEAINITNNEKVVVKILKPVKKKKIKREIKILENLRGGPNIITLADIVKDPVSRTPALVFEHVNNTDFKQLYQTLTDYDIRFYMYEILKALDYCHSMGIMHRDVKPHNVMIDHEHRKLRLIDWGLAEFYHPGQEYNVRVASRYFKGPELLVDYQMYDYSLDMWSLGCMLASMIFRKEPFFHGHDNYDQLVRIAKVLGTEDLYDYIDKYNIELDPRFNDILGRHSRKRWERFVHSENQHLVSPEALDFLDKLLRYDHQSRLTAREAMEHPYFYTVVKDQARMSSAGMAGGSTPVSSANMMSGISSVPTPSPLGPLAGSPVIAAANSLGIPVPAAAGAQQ
UniProt Q9HAW4: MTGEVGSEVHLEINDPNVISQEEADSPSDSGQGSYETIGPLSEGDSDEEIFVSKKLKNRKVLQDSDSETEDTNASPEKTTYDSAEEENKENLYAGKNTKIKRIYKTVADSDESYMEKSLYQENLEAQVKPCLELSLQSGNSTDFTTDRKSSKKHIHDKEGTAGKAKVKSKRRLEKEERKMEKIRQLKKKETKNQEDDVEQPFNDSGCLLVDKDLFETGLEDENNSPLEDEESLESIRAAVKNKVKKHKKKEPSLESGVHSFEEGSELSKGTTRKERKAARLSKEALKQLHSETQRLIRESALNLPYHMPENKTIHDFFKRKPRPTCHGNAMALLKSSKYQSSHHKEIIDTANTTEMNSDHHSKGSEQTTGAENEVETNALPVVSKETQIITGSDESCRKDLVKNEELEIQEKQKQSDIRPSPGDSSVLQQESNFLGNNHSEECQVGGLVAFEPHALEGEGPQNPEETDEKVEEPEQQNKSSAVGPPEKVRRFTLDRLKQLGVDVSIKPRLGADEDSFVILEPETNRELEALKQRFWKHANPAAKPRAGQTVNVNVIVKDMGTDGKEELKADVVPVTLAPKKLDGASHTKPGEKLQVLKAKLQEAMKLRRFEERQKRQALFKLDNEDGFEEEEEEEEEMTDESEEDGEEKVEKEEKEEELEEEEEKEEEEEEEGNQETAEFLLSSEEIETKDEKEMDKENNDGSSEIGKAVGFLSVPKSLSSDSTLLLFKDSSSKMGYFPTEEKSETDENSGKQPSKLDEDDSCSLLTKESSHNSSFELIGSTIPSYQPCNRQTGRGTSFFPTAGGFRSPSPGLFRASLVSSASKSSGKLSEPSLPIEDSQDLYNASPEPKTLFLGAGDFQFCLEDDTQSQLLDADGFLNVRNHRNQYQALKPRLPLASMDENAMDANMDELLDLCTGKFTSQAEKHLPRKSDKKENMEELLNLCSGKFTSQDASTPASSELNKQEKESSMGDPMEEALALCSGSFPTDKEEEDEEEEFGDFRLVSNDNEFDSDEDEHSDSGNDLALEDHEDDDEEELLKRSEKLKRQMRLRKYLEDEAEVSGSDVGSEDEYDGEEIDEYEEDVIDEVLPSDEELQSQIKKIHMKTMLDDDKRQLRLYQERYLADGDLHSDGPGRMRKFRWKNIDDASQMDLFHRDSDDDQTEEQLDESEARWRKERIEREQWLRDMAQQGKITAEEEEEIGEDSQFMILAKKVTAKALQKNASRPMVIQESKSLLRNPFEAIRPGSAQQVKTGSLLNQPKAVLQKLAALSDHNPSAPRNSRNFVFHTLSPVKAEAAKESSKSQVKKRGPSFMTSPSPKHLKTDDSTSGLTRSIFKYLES
UniProt Q13535: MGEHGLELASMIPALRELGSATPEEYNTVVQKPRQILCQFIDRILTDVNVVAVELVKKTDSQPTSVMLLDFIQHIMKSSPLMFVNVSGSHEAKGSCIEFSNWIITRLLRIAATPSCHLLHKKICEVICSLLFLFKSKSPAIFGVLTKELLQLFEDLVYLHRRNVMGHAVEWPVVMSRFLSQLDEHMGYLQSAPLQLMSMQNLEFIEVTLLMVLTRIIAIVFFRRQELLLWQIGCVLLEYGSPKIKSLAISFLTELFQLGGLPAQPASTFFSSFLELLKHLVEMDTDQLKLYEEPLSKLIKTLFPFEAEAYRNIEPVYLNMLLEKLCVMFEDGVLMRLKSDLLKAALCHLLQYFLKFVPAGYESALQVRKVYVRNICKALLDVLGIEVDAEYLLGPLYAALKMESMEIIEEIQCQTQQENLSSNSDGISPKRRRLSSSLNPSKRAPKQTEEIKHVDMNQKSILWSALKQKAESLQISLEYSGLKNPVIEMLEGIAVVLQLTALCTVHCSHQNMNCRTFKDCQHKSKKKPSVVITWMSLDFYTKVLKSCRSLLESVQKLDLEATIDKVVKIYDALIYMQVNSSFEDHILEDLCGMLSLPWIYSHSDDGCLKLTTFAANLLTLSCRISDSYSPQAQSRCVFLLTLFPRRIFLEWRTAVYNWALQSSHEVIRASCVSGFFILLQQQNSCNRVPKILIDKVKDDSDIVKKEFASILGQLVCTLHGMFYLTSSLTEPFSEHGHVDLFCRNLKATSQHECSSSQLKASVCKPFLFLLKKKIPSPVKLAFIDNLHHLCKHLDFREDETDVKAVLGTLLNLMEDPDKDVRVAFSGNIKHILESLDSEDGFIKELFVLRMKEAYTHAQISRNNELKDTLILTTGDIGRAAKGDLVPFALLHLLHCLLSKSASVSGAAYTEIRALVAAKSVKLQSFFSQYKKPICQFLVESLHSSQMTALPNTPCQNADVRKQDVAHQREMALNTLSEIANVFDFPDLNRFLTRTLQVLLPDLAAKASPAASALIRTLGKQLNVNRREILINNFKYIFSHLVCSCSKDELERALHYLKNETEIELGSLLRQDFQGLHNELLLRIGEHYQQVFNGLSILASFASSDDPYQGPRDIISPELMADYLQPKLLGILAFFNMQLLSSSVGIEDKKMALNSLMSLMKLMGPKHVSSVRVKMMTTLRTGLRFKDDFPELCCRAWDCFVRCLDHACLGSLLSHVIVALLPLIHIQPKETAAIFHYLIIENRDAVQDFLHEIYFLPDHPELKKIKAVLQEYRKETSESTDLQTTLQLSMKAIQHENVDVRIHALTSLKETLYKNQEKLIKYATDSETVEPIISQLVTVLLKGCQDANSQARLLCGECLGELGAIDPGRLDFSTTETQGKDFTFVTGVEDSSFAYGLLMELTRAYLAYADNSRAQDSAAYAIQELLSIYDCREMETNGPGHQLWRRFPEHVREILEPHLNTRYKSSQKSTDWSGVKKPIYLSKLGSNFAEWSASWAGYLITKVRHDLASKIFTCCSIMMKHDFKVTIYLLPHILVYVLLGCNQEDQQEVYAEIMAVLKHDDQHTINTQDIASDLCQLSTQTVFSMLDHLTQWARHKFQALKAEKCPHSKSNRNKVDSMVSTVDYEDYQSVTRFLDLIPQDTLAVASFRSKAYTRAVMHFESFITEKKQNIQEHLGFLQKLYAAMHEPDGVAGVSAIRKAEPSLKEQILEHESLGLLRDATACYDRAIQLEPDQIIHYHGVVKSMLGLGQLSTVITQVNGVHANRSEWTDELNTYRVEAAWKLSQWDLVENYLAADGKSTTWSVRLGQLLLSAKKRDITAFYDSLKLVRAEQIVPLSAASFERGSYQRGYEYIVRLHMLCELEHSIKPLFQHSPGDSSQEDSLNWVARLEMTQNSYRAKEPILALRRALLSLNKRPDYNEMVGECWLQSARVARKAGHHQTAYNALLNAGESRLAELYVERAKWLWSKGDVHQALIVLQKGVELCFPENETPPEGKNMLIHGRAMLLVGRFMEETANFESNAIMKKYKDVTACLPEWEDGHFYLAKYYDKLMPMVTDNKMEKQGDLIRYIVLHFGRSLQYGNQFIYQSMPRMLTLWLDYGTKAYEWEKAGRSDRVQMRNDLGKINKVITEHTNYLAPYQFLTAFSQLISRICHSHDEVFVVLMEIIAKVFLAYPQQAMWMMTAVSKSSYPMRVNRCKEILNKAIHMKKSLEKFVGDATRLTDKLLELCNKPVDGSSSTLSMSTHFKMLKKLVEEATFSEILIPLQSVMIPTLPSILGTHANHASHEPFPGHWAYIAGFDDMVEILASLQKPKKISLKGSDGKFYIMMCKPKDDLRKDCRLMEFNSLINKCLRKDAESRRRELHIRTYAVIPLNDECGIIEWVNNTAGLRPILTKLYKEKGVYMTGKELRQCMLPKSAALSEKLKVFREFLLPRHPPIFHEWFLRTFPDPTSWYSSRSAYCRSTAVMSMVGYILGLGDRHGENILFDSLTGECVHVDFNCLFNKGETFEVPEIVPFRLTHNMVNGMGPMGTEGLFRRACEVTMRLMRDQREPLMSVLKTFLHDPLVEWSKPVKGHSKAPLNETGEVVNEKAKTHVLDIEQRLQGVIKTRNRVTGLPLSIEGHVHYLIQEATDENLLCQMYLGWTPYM

How the values were obtained:
[1] = biological target: protein kinase CK2α, endogenous in human U2OS cells (human (endogenous in U2OS)) (UniProt P68400); experiment: co-IP; whole cell lysate of U2OS cells, immunoprecipitation with anti-CK2α antibodies as in Fig. 5H, Western blot
[2] = biological target: protein kinase CK2α, endogenous in rat H9c2-CK2α-44 myoblasts (rat (endogenous in H9c2)) (UniProt P19139); experiment: co-IP; whole cell lysate of control H9c2-CK2α-44 cells, immunoprecipitation with rabbit polyclonal anti-CK2α serum or goat anti-CK2α antibody, Western blot
HA-CHK1 = biological target: T1, HA-CHK1 (UniProt O14757); experiment: co-IP; whole cell lysate of H9c2-CK2α-44 cells co-transfected with FLAG-CLSPN and HA-CHK1, immunoprecipitation with rabbit monoclonal anti-HA, Western blot; with or without Dox, with or without HU for 4 h
T1 sequence: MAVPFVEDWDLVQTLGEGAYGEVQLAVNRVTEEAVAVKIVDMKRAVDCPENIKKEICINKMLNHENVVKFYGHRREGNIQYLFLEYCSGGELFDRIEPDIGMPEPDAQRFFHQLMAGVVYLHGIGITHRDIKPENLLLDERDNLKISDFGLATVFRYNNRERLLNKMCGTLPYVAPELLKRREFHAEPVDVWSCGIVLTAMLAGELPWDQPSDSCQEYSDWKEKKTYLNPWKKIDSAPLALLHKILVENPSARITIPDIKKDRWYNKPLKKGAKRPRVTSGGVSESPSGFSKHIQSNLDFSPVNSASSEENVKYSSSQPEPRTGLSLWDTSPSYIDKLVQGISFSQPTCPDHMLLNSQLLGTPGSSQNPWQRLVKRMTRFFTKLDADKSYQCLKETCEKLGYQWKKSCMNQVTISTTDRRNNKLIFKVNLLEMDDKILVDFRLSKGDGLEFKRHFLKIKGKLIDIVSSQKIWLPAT

[3] = biological target: T2, CDC45, endogenous in human U2OS cells (human (endogenous in U2OS)) (UniProt O75419); experiment: co-IP; whole cell lysate of U2OS cells, immunoprecipitation with anti-CDC45, Western blot; cells with or without CK2α-siRNA (56 h) and 3 mM HU for 4 h
T2 sequence: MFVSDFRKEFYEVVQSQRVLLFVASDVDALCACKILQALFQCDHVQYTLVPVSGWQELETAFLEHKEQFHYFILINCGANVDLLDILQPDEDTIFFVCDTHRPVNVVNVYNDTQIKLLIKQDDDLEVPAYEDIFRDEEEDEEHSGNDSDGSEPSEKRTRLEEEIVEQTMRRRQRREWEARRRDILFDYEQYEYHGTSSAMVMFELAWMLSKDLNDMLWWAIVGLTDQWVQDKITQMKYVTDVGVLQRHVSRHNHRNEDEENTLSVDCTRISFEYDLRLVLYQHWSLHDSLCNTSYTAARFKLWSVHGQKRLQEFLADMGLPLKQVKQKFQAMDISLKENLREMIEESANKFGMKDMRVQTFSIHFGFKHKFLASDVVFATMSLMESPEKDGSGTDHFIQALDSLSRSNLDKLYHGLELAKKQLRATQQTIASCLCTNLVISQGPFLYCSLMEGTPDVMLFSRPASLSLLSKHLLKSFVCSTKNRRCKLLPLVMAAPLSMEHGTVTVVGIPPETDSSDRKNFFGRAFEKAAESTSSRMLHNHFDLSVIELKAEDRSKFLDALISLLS

[4] = biological target: CLASPIN (CLSPN), endogenous in human U2OS cells (human (endogenous in U2OS)) (UniProt Q9HAW4); experiment: co-IP; whole cell lysate of U2OS cells, immunoprecipitation with anti-CLSPN, Western blot; cells with or without CK2α-siRNA (56 h) and 3 mM HU for 4 h

Question: “ATR, endogenous in human U2OS cells (from UniProt Q13535 1-2644) (enzyme)” was tested. Which binding [1] did it give?
Answer: no binding

Question: “ataxia telangiectasia mutated and Rad3-related kinase (ATR), endogenous in rat H9c2-CK2α-44 myoblasts (from UniProt D3Z822 1-2636) (enzyme)” was tested. Which binding [2] did it give?
Answer: no binding

Question: With FLAG-CLSPN (from UniProt Q9HAW4 1-1339) as the substance, how does the binding (HA-CHK1) read?
Answer: binds

Question: For “CLASPIN (CLSPN), endogenous in human U2OS cells (from UniProt Q9HAW4 1-1339)”, which binding [1] is on record?
Answer: binds

Question: Which binding [3] does the source give for “protein kinase CK2α, endogenous in human U2OS cells (from UniProt P68400 1-391) (enzyme)” here?
Answer: binds

Question: And the binding [4]?
Answer: binds
